Measured values from doi:10.1101/334953.

Biological target: T1, sfGFP-Pi (P-cell-specific homeobox protein Pi, N-terminally tagged with sfGFP) (Schizosaccharomyces pombe) (UniProt P10842)
T1 sequence: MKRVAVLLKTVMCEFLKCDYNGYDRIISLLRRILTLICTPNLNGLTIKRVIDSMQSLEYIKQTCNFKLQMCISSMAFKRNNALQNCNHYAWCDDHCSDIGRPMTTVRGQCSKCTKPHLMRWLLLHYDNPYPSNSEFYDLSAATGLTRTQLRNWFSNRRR
Test: co-IP

## Mi-mCherry (M-cell-specific peptide Mi, C-terminally tagged with mCherry) (Schizosaccharomyces pombe)
  binding: binds

Results are given in words; binding and its absence hold for the method and conditions named. In cells and extracts the contact can be indirect. Binding calls can cover weak binding; strength is not graded here. Tags and fused reporters may be left off the sequences shown.
